The list shows a part of the results. Repeats are few or missing, and single values can be far off.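 The apoptosis fraction was the count of cleaved-PARP antibody-stained nuclei relative to all DNA-stained nuclei, imaged in 1,536-well plates. Screening doses were set so most cells survived, and baseline and induced cleaved-PARP levels vary greatly across cell lines.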
The compounds below were run on RVH-421 (assay: cleaved PARP positive nuclei fraction relative to DMSO control; melanoma cells; higher = more apoptosis). Conditions: library dose: low library concentration; 72 h.

Structure (SMILES) | cleaved PARP positive nuclei fraction [%]
CCc1ccc(CCOc2ccc(CC3SC(=O)NC3=O)cc2)nc1 (stereo not given) [pioglitazone] + Cc1cc([N+](=O)[O-])ccc1NS(=O)(=O)c1cc(Cl)ccc1Cl [FH535] (first compound 2 µM, partner dose 1 µM) | 34.6
CCN(CC)CCCCNc1ncc2cc(-c3cc(OC)cc(OC)c3)c(NC(=O)NC(C)(C)C)nc2n1 + O=c1cc(-c2cccc3c2Sc2ccccc2S3)oc(N2CCOCC2)c1 [KU55933] (first compound 0.1 µM, partner dose 1 µM) | 80.1
COc1ccc(COc2ccc(Cc3cnc(N)nc3N)cc2OC)cc1 + O=C1NC(=O)/C(=C/c2ccc(-c3ccc(F)cc3O)o2)S1 [AS252424] (first compound 1 µM, partner dose 1 µM) | 68.2
Oc1cc(-c2nc(-c3ccccc3)[nH]c2-c2ccncc2)ccc1Cl + Cn1cc(/C=C2\C(=O)Nc3cccnc32)c2ccccc21 [GW441756] (first compound 0.2 µM, partner dose 0.4 µM) | 84.8
NCC(=O)Nc1ccc(-n2nc(C(F)(F)F)cc2-c2ccc3c(ccc4ccccc43)c2)cc1 + Oc1cc(-c2nc(-c3ccccc3)[nH]c2-c2ccncc2)ccc1Cl [L779450] (first compound 1 µM, partner dose 0.2 µM) | 24.3
O=S(=O)(c1ccccc1)N(CC(F)(F)F)c1ccc(C(O)(C(F)(F)F)C(F)(F)F)cc1 + CC(C)CCN1c2nc(Nc3cc(F)c(O)c(F)c3)ncc2N(C)C(=O)C1C [BID1870] (first compound 1.4 µM, partner dose 0.2 µM) | 22.3
Cn1cc(/C=C2\C(=O)Nc3cccnc32)c2ccccc21 + CC(C)CCN1c2nc(Nc3cc(F)c(O)c(F)c3)ncc2N(C)C(=O)C1C [BID1870] (first compound 0.4 µM, partner dose 0.2 µM) | 98.2
O=C1NC(=O)/C(=C/c2ccc(-c3ccc(F)cc3O)o2)S1 + COc1cc(N2CCC(N3CCN(C)CC3)CC2)ccc1Nc1ncc(Cl)c(Nc2ccccc2S(=O)(=O)C(C)C)n1 [NVP-TAE684] (first compound 1 µM, partner dose 0.08 µM) | 59.1
N#Cc1c(O)c2c(-c3ccc(-c4ccccc4O)cc3)csc2[nH]c1=O + CCN(CC)CCCCNc1ncc2cc(-c3cc(OC)cc(OC)c3)c(NC(=O)NC(C)(C)C)nc2n1 [PD173074] (first compound 2 µM, partner dose 0.1 µM) | 91.8
CN(C)S(=O)(=O)c1ccc2c(c1)/C(=C/c1cc3c([nH]1)CCCC3)C(=O)N2 + COc1ccc2c(c1)CCC1C2CCC2(C)C(NCCCCCCN3C(=O)C=CC3=O)CCC12 [U73122] (first compound 0.4 µM, partner dose 0.4 µM) | 126
Oc1cc(-c2nc(-c3ccccc3)[nH]c2-c2ccncc2)ccc1Cl + c1cc(-c2cnn3cc(-c4ccc(OCCN5CCCCC5)cc4)cnc23)ccn1 [Dorsomorphin] (first compound 0.2 µM, partner dose 0.4 µM) | 151
Oc1nc(-c2ccc(C(F)(F)F)cc2)nc2c1CSCC2 + CCCCCCCCCCCC1=C(O)C(=O)C=C(O)C1=O [Embelin] (first compound 2 µM, partner dose 1.2 µM) | 117
CN(C)S(=O)(=O)c1ccc2c(c1)/C(=C/c1cc3c([nH]1)CCCC3)C(=O)N2 + CCN(CC)CCCCNc1ncc2cc(-c3cc(OC)cc(OC)c3)c(NC(=O)NC(C)(C)C)nc2n1 [PD173074] (first compound 0.4 µM, partner dose 0.1 µM) | 109
COc1ccc(-c2ccc3c(N4CCOCC4)nc(N4C[C@@H](C)O[C@@H](C)C4)nc3n2)cc1CO + O=c1cc(-c2cccc3c2Sc2ccccc2S3)oc(N2CCOCC2)c1 [KU55933] (first compound 0.02 µM, partner dose 1 µM) | 83.9
NCC(=O)Nc1ccc(-n2nc(C(F)(F)F)cc2-c2ccc3c(ccc4ccccc43)c2)cc1 + Cn1cc(/C=C2\C(=O)Nc3cccnc32)c2ccccc21 [GW441756] (first compound 1 µM, partner dose 0.4 µM) | 18.1
COc1ccc(-c2ccc3c(N4CCOCC4)nc(N4C[C@@H](C)O[C@@H](C)C4)nc3n2)cc1CO + CC(C)CCN1c2nc(Nc3cc(F)c(O)c(F)c3)ncc2N(C)C(=O)C1C [BID1870] (first compound 0.02 µM, partner dose 0.2 µM) | 56
CCN(CC)CCCCNc1ncc2cc(-c3cc(OC)cc(OC)c3)c(NC(=O)NC(C)(C)C)nc2n1 + Cc1cc([N+](=O)[O-])ccc1NS(=O)(=O)c1cc(Cl)ccc1Cl [FH535] (first compound 0.1 µM, partner dose 1 µM) | 87.1
COc1cc2c(Oc3ccc4[nH]c(C)cc4c3F)ncnc2cc1OCCCN1CCCC1 [cediranib] + CCN(CC)CCCCNc1ncc2cc(-c3cc(OC)cc(OC)c3)c(NC(=O)NC(C)(C)C)nc2n1 [PD173074] (first compound 0.4 µM, partner dose 0.1 µM) | 83.9
O=C(O)c1ccc(-c2c[nH]c3ncc(-c4ccccc4)cc23)cc1C1CCCC1 + Cn1cc(/C=C2\C(=O)Nc3cccnc32)c2ccccc21 [GW441756] (first compound 0.16 µM, partner dose 0.4 µM) | 86.2
O=C(O)c1ccc(-c2c[nH]c3ncc(-c4ccccc4)cc23)cc1C1CCCC1 + Oc1nc(-c2ccc(C(F)(F)F)cc2)nc2c1CSCC2 [XAV939] (first compound 0.16 µM, partner dose 2 µM) | 174
N#Cc1c(O)c2c(-c3ccc(-c4ccccc4O)cc3)csc2[nH]c1=O + COc1cc(N2CCC(N3CCN(C)CC3)CC2)ccc1Nc1ncc(Cl)c(Nc2ccccc2S(=O)(=O)C(C)C)n1 [NVP-TAE684] (first compound 2 µM, partner dose 0.08 µM) | 270
Oc1cc(-c2nc(-c3ccccc3)[nH]c2-c2ccncc2)ccc1Cl + COc1cc(N2CCC(N3CCN(C)CC3)CC2)ccc1Nc1ncc(Cl)c(Nc2ccccc2S(=O)(=O)C(C)C)n1 [NVP-TAE684] (first compound 0.2 µM, partner dose 0.08 µM) | 115
COc1ccc2c(c1)CCC1C2CCC2(C)C(NCCCCCCN3C(=O)C=CC3=O)CCC12 (stereo not given) + Oc1cc(-c2nc(-c3ccccc3)[nH]c2-c2ccncc2)ccc1Cl [L779450] (first compound 0.4 µM, partner dose 0.2 µM) | 93.2
COc1cc2c(Oc3ccc4[nH]c(C)cc4c3F)ncnc2cc1OCCCN1CCCC1 [cediranib] + Oc1cc(-c2nc(-c3ccccc3)[nH]c2-c2ccncc2)ccc1Cl [L779450] (first compound 0.4 µM, partner dose 0.2 µM) | 128
O=S(=O)(c1ccccc1)N(CC(F)(F)F)c1ccc(C(O)(C(F)(F)F)C(F)(F)F)cc1 + Cn1cc(/C=C2\C(=O)Nc3cccnc32)c2ccccc21 [GW441756] (first compound 1.4 µM, partner dose 0.4 µM) | 69.6
N#Cc1c(O)c2c(-c3ccc(-c4ccccc4O)cc3)csc2[nH]c1=O + CC(C)CCN1c2nc(Nc3cc(F)c(O)c(F)c3)ncc2N(C)C(=O)C1C [BID1870] (first compound 2 µM, partner dose 0.2 µM) | 110
O=S(=O)(c1ccccc1)N(CC(F)(F)F)c1ccc(C(O)(C(F)(F)F)C(F)(F)F)cc1 + Oc1cc(-c2nc(-c3ccccc3)[nH]c2-c2ccncc2)ccc1Cl [L779450] (first compound 1.4 µM, partner dose 0.2 µM) | 145
CN(NC(=O)CC(=O)NN(C)C(=S)c1ccccc1)C(=S)c1ccccc1 + COC(=O)c1sccc1S(=O)(=O)Nc1ccc(Nc2ccccc2)cc1OC [GSK0660] (first compound 0.006 µM, partner dose 1 µM) | 35.3
COc1cc2c(Oc3ccc4[nH]c(C)cc4c3F)ncnc2cc1OCCCN1CCCC1 [cediranib] + O=C(O)C(=O)Nc1sc2c(c1C(=O)O)CCNC2 [TCS401] (first compound 0.4 µM, partner dose 1.66667 µM) | 93.8
COC(=O)c1sccc1S(=O)(=O)Nc1ccc(Nc2ccccc2)cc1OC + CCCCCCCCCCCC1=C(O)C(=O)C=C(O)C1=O [Embelin] (first compound 1 µM, partner dose 1.2 µM) | 49.1

2 entries drawn at random from those above:
Structure (SMILES) | cleaved PARP positive nuclei fraction [%]
Oc1cc(-c2nc(-c3ccccc3)[nH]c2-c2ccncc2)ccc1Cl + COc1cc(N2CCC(N3CCN(C)CC3)CC2)ccc1Nc1ncc(Cl)c(Nc2ccccc2S(=O)(=O)C(C)C)n1 [NVP-TAE684] (first compound 0.2 µM, partner dose 0.08 µM) | 115
COc1cc2c(Oc3ccc4[nH]c(C)cc4c3F)ncnc2cc1OCCCN1CCCC1 [cediranib] + O=C(O)C(=O)Nc1sc2c(c1C(=O)O)CCNC2 [TCS401] (first compound 0.4 µM, partner dose 1.66667 µM) | 93.8

From the supplement of paper PMC4604168 (melanoma cell lines)
